No constants are given. Whether binding was seen depends on the method and setting. In cells and extracts the contact can be indirect. A yes stands for co-enrichment or nearness to the bait. Other partners may have been found.
Molecular target: p62 (bait of the mass spectrometry analysis) (UniProt Q13501)
Test: affinity purification with mass spectrometry; mass spectrometry analysis of p62 interacting proteins following copper chelation; hits intersected with the E3 Ligases (NHLBI) and UbiBrowser datasets

SMURF2 (hit of the p62 mass spectrometry analysis) (from UniProt Q9HAU4 1-748) (enzyme)
binding: binds

Reference: article PMC12561351
